Experimental data as given in PubChem BioAssay (EPA / NIEHS).
Several values for one entry are separate records, joined by “and”; a condition that tells them apart may be missing. Equal values may be shown once. The inconclusive results got no clear call from the source; some entries with a clear call stand among them for comparison. A potency beside an inconclusive call is a rough fit, not a confirmed value. The source holds several records for some structures; these can differ, active in one and inactive in another. Activity calls are given as the source filed them. Rule for the calls: active = hit-call score of the fitted dose curve at least 0.9, where 1 is the maximum; inconclusive = response in the unintended direction; inactive = score below 0.9.

Sequences of proteins named here, by UniProt entry; tags and fusion partners are left off.
UniProt P04637, whole entry, looked up: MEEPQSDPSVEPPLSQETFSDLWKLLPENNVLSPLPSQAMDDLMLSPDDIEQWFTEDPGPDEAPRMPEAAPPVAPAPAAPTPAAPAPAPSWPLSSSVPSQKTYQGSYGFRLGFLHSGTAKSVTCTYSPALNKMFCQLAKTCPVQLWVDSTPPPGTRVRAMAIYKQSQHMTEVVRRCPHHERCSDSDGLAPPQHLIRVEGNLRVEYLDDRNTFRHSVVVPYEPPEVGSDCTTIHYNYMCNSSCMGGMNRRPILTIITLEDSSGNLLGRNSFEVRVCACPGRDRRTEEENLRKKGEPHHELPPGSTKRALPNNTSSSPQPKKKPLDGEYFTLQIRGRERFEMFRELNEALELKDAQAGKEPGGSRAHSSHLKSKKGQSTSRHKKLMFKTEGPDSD

Target: Cellular tumor antigen p53 (Homo sapiens) (UniProt P04637)
Assay: TOX21_p53_BLA_p3_ratio: Tox21 HCT-116 p53 Agonism Beta-lactamase Assay, Ratio, Phase 3 (AID 2283596)
In short: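 HCT116 p53-bla cells (4000/well) given compound in DMSO (217-fold dilution) after 5 h, incubated 16 h at 37C. CCF4-AM substrate 2 h at room temperature; 460/530 nm emission ratio, gain fitted against DMSO.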

| Structure (SMILES) | outcome | AC50 |
| --- | --- | --- |
| CC(C)(c1ccccc1)c1ccc(O)cc1 | inactive |  |
| O=C(Nc1ccc2[nH]ccc2c1)c1cc2cc(F)ccc2n1Cc1cccc(F)c1 |  | active: 86.7 µM |
| CCc1nn(C)c(C(=O)NCc2ccc(C(C)(C)C)cc2)c1Cl | inactive |  |
| CCC(C)c1cc([N+](=O)[O-])cc([N+](=O)[O-])c1O (centres undefined) |  | active: 0.984 µM |
| O=[N+]([O-])c1ccc(Cl)c([N+](=O)[O-])c1 | inactive |  |
| CC(=O)[O][Hg][c]1ccccc1 |  | active: 1.46 µM and active: 1.07 µM and active: 1.23 µM |
| O=S1(=O)OC(c2cc(Br)c(O)c(Br)c2)(c2cc(Br)c(O)c(Br)c2)c2ccccc21 |  | inconclusive: 42.9 µM |
| Cc1cc(-c2ccc(N)c(C)c2)ccc1N |  | inconclusive: 27 µM and inconclusive: 46 µM and inconclusive: 45.6 µM |
| COC(=O)NC(=S)Nc1ccccc1NC(=S)NC(=O)OC |  | inconclusive: 46.1 µM |
| C[C@H]1CCCC(=O)CCC/C=C/c2cc(O)cc(O)c2C(=O)O1 |  | active: 12.3 µM and active: 15.8 µM |
| CC(C)(c1ccccc1)c1ccc(O)c(C(C)(C)c2ccccc2)c1 |  | active: 80.6 µM and active: 83.7 µM |
| CC(c1ccc(O)cc1)(c1ccc(O)cc1)c1ccc(O)cc1 |  | active: 78.9 µM |
| CCCCCCCCn1sccc1=O |  | active: 55.1 µM |
| CC1(C)CN=C(NN=C(/C=C/c2ccc(C(F)(F)F)cc2)/C=C/c2ccc(C(F)(F)F)cc2)NC1 |  | active: 39.5 µM |
| CCC[CH2][Sn]([CH2]CCC)([CH2]CCC)[O]C(=O)c1ccccc1 |  | active: 24.4 µM |
| CCCCOC(=O)c1ccccc1C(=O)OCCCC |  | inconclusive: 46.1 µM |
| Cc1cc(Cl)ccc1OCC(=O)O |  | inconclusive: 46.1 µM |
| CCCCCCCCCC[N+](C)(C)CCCCCCCCCC |  | active: 74.3 µM and active: 39.7 µM |

Ordered by molar mass (smallest number first): some entries from above.

| Structure (SMILES) | outcome | AC50 |
| --- | --- | --- |
| Cc1cc(Cl)ccc1OCC(=O)O |  | inconclusive: 46.1 µM |
| CC(C)(c1ccccc1)c1ccc(O)c(C(C)(C)c2ccccc2)c1 |  | active: 80.6 µM and active: 83.7 µM |
| COC(=O)NC(=S)Nc1ccccc1NC(=S)NC(=O)OC |  | inconclusive: 46.1 µM |
| CC1(C)CN=C(NN=C(/C=C/c2ccc(C(F)(F)F)cc2)/C=C/c2ccc(C(F)(F)F)cc2)NC1 |  | active: 39.5 µM |

Test system: not listed separately
Assay: TOX21_p53_BLA_p4_viability: Viability Assessment in the Tox21 HCT-116 p53 Agonism Beta-lactamase Assay, Phase 4 (AID 2283597);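 note: hits lower the luminescence signal meaning cytotoxicity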
In short: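 Following a 16 h exposure at 37C, the treated HCT116 wells were first read for the FRET ratio. They were then lysed with CellTiter-Glo, and ATP luminescence was recorded after 30 min at room temperature.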

| Structure (SMILES) | AC50 | outcome |
| --- | --- | --- |
| CC(C)(c1ccccc1)c1ccc(O)cc1 | active: 71 µM and active: 65.8 µM |  |
| O=C(Nc1ccc2[nH]ccc2c1)c1cc2cc(F)ccc2n1Cc1cccc(F)c1 | active: 46.1 µM |  |
| CCc1nn(C)c(C(=O)NCc2ccc(C(C)(C)C)cc2)c1Cl | active: 46.1 µM |  |
| O=[N+]([O-])c1ccc(Cl)c([N+](=O)[O-])c1 | active: 71.9 µM and active: 42.9 µM |  |
| CC(=O)[O][Hg][c]1ccccc1 | active: 3.63 µM and active: 4.05 µM and active: 3.54 µM |  |
| O=S1(=O)OC(c2cc(Br)c(O)c(Br)c2)(c2cc(Br)c(O)c(Br)c2)c2ccccc21 | active: 52.4 µM |  |
| Cc1cc(-c2ccc(N)c(C)c2)ccc1N | inconclusive: 9.12 µM |  |
| COC(=O)NC(=S)Nc1ccccc1NC(=S)NC(=O)OC | inconclusive: 484 nM and inconclusive: 1.71 µM |  |
| C=C(C)C(=O)[O][Sn]([CH2]CCC)([CH2]CCC)[CH2]CCC | active: 1.5 µM |  |
| CC(C)(c1ccccc1)c1ccc(O)c(C(C)(C)c2ccccc2)c1 | active: 12.1 µM and active: 16.6 µM |  |
| CCN1CCC2(CC1)COc1cc3c(cc12)N(C(=O)c1ccc(-c2ccc(-c4nnc(C)o4)cc2C)cc1)CC3 | active: 45.7 µM |  |
| O=S1OC[C@@H]2[C@H](CO1)[C@]1(Cl)C(Cl)=C(Cl)[C@@]2(Cl)C1(Cl)Cl (some centres undefined) | active: 83.6 µM |  |
| CC(C)N1C(=O)N(c2ccccc2)CSC1=NC(C)(C)C | active: 71.3 µM |  |
| CCCCCCCCn1sccc1=O | active: 15.4 µM | inactive |
| CC1(C)CN=C(NN=C(/C=C/c2ccc(C(F)(F)F)cc2)/C=C/c2ccc(C(F)(F)F)cc2)NC1 |  | inactive |
| C[C@]12CCC(=O)C=C1CC[C@@H]1[C@@H]2CC[C@@]2(C)[C@H]1CC[C@]2(C)O | inconclusive: 23 µM |  |
| CCC[CH2][Sn]([CH2]CCC)([CH2]CCC)[O]C(=O)c1ccccc1 | active: 0.953 µM |  |
| CCCCOC(=O)c1ccccc1C(=O)OCCCC | inconclusive: 46.1 µM |  |
| O=C(Cc1ccccc1)c1ccccc1 | inconclusive: 2.77 µM |  |
| CNC(=O)Oc1cccc2c1OC(C)(C)O2 | inconclusive: 74.2 µM |  |
| Cc1cc(Cl)ccc1OCC(=O)O | inconclusive: 46.1 µM and inconclusive: 11.2 µM |  |
| CCCCCCCCCC[N+](C)(C)CCCCCCCCCC | active: 23.4 µM and active: 21.1 µM |  |

Target: Cellular tumor antigen p53 (Homo sapiens) (UniProt P04637)
Assay: TOX21_p53_BLA_p5_ratio: Tox21 HCT-116 p53 Agonism Beta-lactamase Assay, Ratio, Phase 5 (AID 2283599)
In short: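 Beta-lactamase reporter ratio (blue 460 nm over green 530 nm, 405 nm excitation) after 2 h CCF4-AM loading, in HCT-116 cells exposed 16 h at 37 C to compounds pinned at 217-fold dilution. Increases relative to DMSO baseline scored.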

| Structure (SMILES) | AC50 | outcome |
| --- | --- | --- |
| CON(C)C(=O)Nc1ccc(Cl)c(Cl)c1 | inconclusive: 46.1 µM | inactive |
| CC(C)(c1ccccc1)c1ccc(O)cc1 | active: 73.1 µM |  |
| O=C(Nc1ccc2[nH]ccc2c1)c1cc2cc(F)ccc2n1Cc1cccc(F)c1 | active: 83.2 µM |  |
| CCC(C)c1cc([N+](=O)[O-])cc([N+](=O)[O-])c1O (centres undefined) | active: 3.4 µM and inconclusive: 86.3 µM |  |
| O=[N+]([O-])c1ccc(Cl)c([N+](=O)[O-])c1 | active: 32.3 µM and active: 74.9 µM |  |
| CC(=O)[O][Hg][c]1ccccc1 | active: 2.9 µM and active: 2.82 µM and active: 4.64 µM |  |
| Cc1cc(-c2ccc(N)c(C)c2)ccc1N | inconclusive: 46 µM |  |
| CCC(C)(C)c1ccc(O)cc1 | inconclusive: 43.4 µM |  |
| C=C(C)C(=O)[O][Sn]([CH2]CCC)([CH2]CCC)[CH2]CCC | active: 35.9 µM |  |
| C[C@H]1CCCC(=O)CCC/C=C/c2cc(O)cc(O)c2C(=O)O1 | active: 11.7 µM |  |
| CC(C)(c1ccccc1)c1ccc(O)c(C(C)(C)c2ccccc2)c1 | active: 73.6 µM and active: 51.9 µM |  |
| NS(=O)(=O)C(F)(F)C(F)(F)C(F)(F)C(F)(F)C(F)(F)C(F)(F)C(F)(F)C(F)(F)F | active: 82.3 µM |  |
| CC1(C)CN=C(NN=C(/C=C/c2ccc(C(F)(F)F)cc2)/C=C/c2ccc(C(F)(F)F)cc2)NC1 | active: 44.7 µM |  |
| C[C@]12CCC(=O)C=C1CC[C@@H]1[C@@H]2CC[C@@]2(C)[C@H]1CC[C@]2(C)O | active: 47.1 µM | inactive |
| CCC[CH2][Sn]([CH2]CCC)([CH2]CCC)[O]C(=O)c1ccccc1 | active: 24.7 µM |  |
| CCCCOC(=O)c1ccccc1C(=O)OCCCC | inconclusive: 46.1 µM |  |
| O=C(Cc1ccccc1)c1ccccc1 |  | inactive |
| CCCCCCCCCC[N+](C)(C)CCCCCCCCCC | active: 72.9 µM and active: 39.8 µM |  |
